Data from PubChem BioAssay AID2685 (National Center for Advancing Translational Sciences (NCATS), 2010).
This is one part of the list. Further columns of the screen follow, without active or inactive calls. Compounds called inactive in the main read-out are mostly missing here. The note in brackets gives the kind of curve behind each potency; many fits are weak.

Assay: qHTS Assay for Lipid Storage Modulators in Drosophila S3 Cells;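 on cell number change: cells counted by Cell Tracker Red CMTPX staining in the red channel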
Conditions: BODIPY lipid droplet fluorescence, 18-24 h; for cell number change: measured here: cell count max response, cells fed with added oleic acid
Method in brief: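 Drosophila S3 cells loaded with oleic acid (400 uM, as added) and compounds at several concentrations; lipid droplets imaged by 488-nm laser-scanning cytometry, 500–530 nm intensity and object ratio to cell channel. Percent activity normalized to 20 uM Triacsin C.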

[1] = measured here: cell number channel AC50, cells fed with added oleic acid
[2] = measured here: lipid fluorescence (Fed channel) AC50, cells fed with added oleic acid

| Compound | cell number change [%] | AC50 [1] | AC50 [2] |
| --- | --- | --- | --- |
| Nc1nonc1-n1nnc(C(=O)N/N=C/c2ccc(OCc3cccc(Cl)c3)cc2)c1CN1CCCCC1 | 72.1 | 29.1 µM [rising, single point] | – |
| CC1CC1c1ccc(/C=C(\C#N)C(=O)Nc2ccccc2Cl)o1 (configuration not stated) | 12.1 | – | 1.3 µM [falling, single point] |
| O=C(C1CCCO1)N1CCN(C(=S)NC2CC2)CC1 (configuration not stated) | -24.4 | – | – |
| COc1ccccc1N1CCN(S(=O)(=O)c2ccc(F)cc2)CC1 | -9.55 | – | – |
| CC(CC(=O)N1CCN(c2ccc(C(F)(F)F)cn2)CC1)n1ccnc1 (configuration not stated) | 14.7 | 2.91 µM [rising, partial curve, poor fit] | 3.26 µM [rising, full curve, poor fit] |
| CC(=O)Nc1ccc2nc(CN3CCC(CO)(CCc4ccccc4)CC3)ccc2c1 | -9.03 | – | 0.0082 µM [falling, full curve, poor fit] |
| CCOC(=O)N1CCN(S(=O)(=O)c2ccc(C(=O)Nc3nc4ccccc4s3)cc2)CC1 | 159 | 29.1 µM [rising, single point] | – |
| CCOc1ccc(NC(=S)Nc2ccc(C)c([N+](=O)[O-])c2)cc1 | -1.86 | – | 6.51 µM [rising, partial curve, poor fit] |
| Cc1cc(C)c2nc(N3CCCC(C(=O)N4CCC(C(N)=O)CC4)C3)sc2c1 (configuration not stated) | – | – | 0.58 µM [rising, single point] |
| CC1=CC(=O)C2=C(C)CC[C@@H]3[C@H](OC(=O)[C@H]3C)[C@@H]12 | 0.825 | 0.00517 µM [falling, full curve, poor fit] | 3.26 µM [falling, single point] |
| CC1CC(C)CN(c2ncc3c(n2)CC(c2ccc(Cl)cc2)CC3=O)C1 (configuration not stated) | – | 1.84 µM [falling, partial curve] | 4.11 µM [falling, full curve, poor fit] |
| CN1CCN(CC(=O)O)CC1 | 5.93 | – | – |
| O=C(CSc1ncccc1C(=O)O)c1cccc(C(F)(F)F)c1 | – | – | 5.8 µM [falling, single point] |
| CN(C)c1ccc(/C=C(/C#N)C(=O)NCc2ccccc2)o1 | – | – | 20.6 µM [falling, single point] |
| N#C/C(=C/c1ccccc1)c1nn(CCO)c(N)c1C#N | 115 | 1.84 µM [rising, full curve] | 0.651 µM [rising, single point] |
| CC(=O)NC1=NN(C(C)=O)C(c2sccc2C)S1 (configuration not stated) | 15.3 | – | – |

Reprinted at random: two records from the list

| Compound | cell number change [%] | AC50 [1] | AC50 [2] |
| --- | --- | --- | --- |
| N#C/C(=C/c1ccccc1)c1nn(CCO)c(N)c1C#N | 115 | 1.84 µM [rising, full curve] | 0.651 µM [rising, single point] |
| Nc1nonc1-n1nnc(C(=O)N/N=C/c2ccc(OCc3cccc(Cl)c3)cc2)c1CN1CCCCC1 | 72.1 | 29.1 µM [rising, single point] | – |

Next part:

| Compound | cell number change [%] | AC50 [1] | AC50 [2] |
| --- | --- | --- | --- |
| CCN1CCN(c2cc(C)c3cc(NC(=O)CCC(=O)N4CCN(c5ccccc5)CC4)ccc3n2)CC1 | 22.2 | – | 20.6 µM [rising, partial curve] |
| COc1ccccc1CNC(=O)C1CCCN(S(=O)(=O)c2ccc3c(c2)C(C)(C)C(=O)N3C)C1 (configuration not stated) | 5.09 | 0.259 µM [rising, full curve, poor fit] | 0.651 µM [rising, partial curve, poor fit] |
| CC(=O)c1cccc(NC(=O)c2c(-c3c(F)cccc3Cl)noc2C)c1 | -4.35 | – | – |
| COc1ccc(S(=O)(=O)N2CCC(C(=O)Nc3cccc(C(C)=O)c3)CC2)cc1C | -4.74 | – | 8.2 µM [rising, partial curve] |
| Cc1cccc(-c2nc3ccc(C(=O)NCCN4CCN(C)CC4)cc3nc2-c2cccc(C)c2)c1 | -12.5 | – | 29.1 µM [falling, single point] |
| CC1=CC(C)C(C(=O)O)C(C(=O)Nc2cccnc2)C1 (configuration not stated) | -15.1 | – | 29.1 µM [rising, single point] |
| O=C1C2C3C=CC(C3=C3CCCCC3)C2C(=O)N1c1ccccc1 (configuration not stated) | 77.5 | 29.1 µM [rising, single point] | – |
| COc1ccccc1C(=O)Nc1cccc(C(=O)N2CCOCC2)c1 | -22.6 | – | 0.517 µM [falling, full curve] |
| CNc1ccc(OC)cc1-n1cnc(-c2ccc([N+](=O)[O-])cc2)c1 | -7.42 | – | – |
| Cc1csc(=O)n1CCC(=O)OCC(=O)N(CC(C)C)c1c(N)n(Cc2ccccc2)c(=O)[nH]c1=O | -48 | 16.4 µM [falling, partial curve, poor fit] | – |
| O=C(COC(=O)c1cccs1)NCC1CCCCC1 | -18.4 | – | 6.51 µM [rising, single point] |
| CC(Sc1nc2c(c(=O)n(C)c(=O)n2C)n1Cc1cc2c(cc1Cl)OCO2)C(=O)O (configuration not stated) | 4.67 | – | 6.51 µM [rising, single point] |
| Cc1c(C(=O)OCC(=O)N2CCCC2)cccc1[N+](=O)[O-] | 31 | – | – |
| COC(=O)c1cc(S(=O)(=O)NCCc2sccc2C)c[nH]1 | – | – | 23.1 µM [falling, single point] |
| O=C(Cc1cccc(C(F)(F)F)c1)NCc1ccc(Cl)cc1 | -4.77 | 2.06 µM [rising, single point] | – |
| CC(Sc1ncnc2sc(-c3ccccc3)cc12)C(=O)NCC1CCCO1 (configuration not stated) | 18.9 | – | 29.1 µM [rising, single point] |
